## Library screening results

From ChEMBL document CHEMBL3988442, “University of Dundee, Small-Polar-MMV Screening Library” (2021).

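Viability assay of Plasmodium falciparum sporozoites; the read-out is not stated. The concentration is filed as 10 mM, unlikely as a test dose, so the dose is not known. Direction is inferred from retests: higher values go with lower viability. Strong results were mostly tested again. Size under these conditions: about 34,000 compounds, about 280 of them at 50% or above in at least one test.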

The filed quantity is “Percent Effect” (%).
The record does not define 0% and 100%; most values in the screen are far below 50% and negative numbers occur (in some assays of this library far below -100).
The compounds are a random part of those screened.
Two or more numbers in one place are separate tests of the same structure; such repeats can differ widely.

Result for CC(=O)N1CCC(C(=O)c2cc(C)cnc2N)CC1 was -15.57%. CSc1ccc(CNC2(c3ccc(F)cc3)CCOCC2)cc1 read 0.8284%. With NCC(=O)N1CCC(c2cncc(Oc3cccnc3)n2)CC1 the screen gave 2.332%. For CCc1cc(C(=O)N2CCCn3nc(CCC(=O)O)cc3C2)cs1 the result was 4.474%. Cn1cc(C(=O)N2CCCC(n3cccn3)C2)c2ccccc21 (configuration not stated) gave -9.314%. c1cncc(OCc2nc(C3CC3)nn2-c2ccc3c(c2)OCCO3)c1 read 74.85% and 76.98%.

CCc1ccc(CNC(=O)NCc2nnc3n2CCC3)s1 gave 7.81%. COCCN1CCN(CCS(=O)(=O)C(F)(F)F)CC1C (configuration not stated) gave -2.256%. CC(C)(O)c1cc(CC2(NCc3ccco3)COC2)no1 read 6.422% and -8.446%. Result for COc1ccccc1N(C)S(=O)(=O)c1cc(C(=O)O)cs1 was 4.053%. For CCc1nc(-c2ccc(NC(=O)N3CCC4(CC3)OCCO4)cc2)no1 the result was -2.271% and -29.53% and -27.72%. Cc1cc(CNC(=O)CCc2ccc(S(N)(=O)=O)cc2)no1 read 4.55%.

Result for Cc1nccn1C1CCCN(C(=O)c2ccc3c(c2)nc(C)n3C)C1 (configuration not stated) was -6.388%. For Cc1ccc2c(c1)CCC2NCc1c(C)nn(C)c1N1CCOCC1.Cl (configuration not stated) the result was 7.92%. CC(C)CNC(=O)C1(Cc2ccccc2-c2cccs2)CCNC1 (configuration not stated) gave 5.587%. For Cc1cc(CN2CCC(N(C)Cc3noc(C4CC4)n3)C2)on1 (configuration not stated) the result was 6.921%. With O=C(C1CCCC1)N1CCCC(c2nc(O)cc(-c3ccncc3)n2)C1 (configuration not stated) the screen gave 8.374%. CC(C)NC(=O)c1cc2c(c3ccccc3n2C)n1C(=O)N(C)C gave -8.68%.

For CCNC(c1ccc(Cl)cc1)c1cccnc1 (configuration not stated) the result was 0.5511%. With COCC1CN(Cc2ccc(OC)cc2)Cc2nn(C)cc21.O=C(O)C(F)(F)F (configuration not stated) the screen gave 3.02%. CC(C)c1ccc(OCCC(=O)N2CCC(CC(N)=O)CC2)cc1 gave -11.38%. CC(C)(C)n1cc(C(=O)N2CCCN(Cc3cccs3)CC2)cn1 read 2.803%. For Cc1ccc(N2CCCC(NCCS(C)(=O)=O)C2)nn1 (configuration not stated) the result was -7.119%. With CCn1c(C(=O)N2CCCN(CC(N)=O)CC2)cc2ccccc21 the screen gave 2.489%.

With CC(=O)NCC(=O)N1CCOC(c2cccc(N)n2)C1 (configuration not stated) the screen gave 2.685%. Cc1ncsc1C(=O)NCCn1nc2ccccn2c1=O gave -2.757%. Result for Cc1cc(C2CCCN(S(=O)(=O)c3cn[nH]c3)C2)ccn1 (configuration not stated) was -1.465%. With CC(Nc1ccc(CCN2CCCCC2)cc1)C(=O)N(C)CCC#N (configuration not stated) the screen gave 5.006%. Result for COc1ccccc1OCc1cc(C(=O)N2C[C@H](O)[C@@H](N(C)C)C2)n[nH]1 was 0.224%. Result for [H][C@@]12CN(C(=O)N(C)C)C[C@]1([H])C(=O)N(C)C21CCN(C(=O)NC(C)C)CC1 was 11.98%.

Result for COc1cc(N2CCCC3(CCN(c4cncnc4)C3=O)C2)ncn1 (configuration not stated) was 7.24%. Result for Cc1ccc(C(=O)N2CCn3c(COCC4CC4)cnc3C2C)s1 (configuration not stated) was -1.946%. [H][C@]12CC[C@]([H])(CN(C3Cc4ccccc4C3)C1)N(Cc1cc(CC)no1)C2 gave -14.48%. CCn1cc(NC(=O)NCC(c2cccc(OC)c2)N(C)C)cn1 (configuration not stated) gave 18.25% and 14.26% and 26.58%. For CCC(C)NC(=O)c1nnn(-c2ccc(Br)cc2)n1 (configuration not stated) the result was 17.99%. CCN(CC)C(=O)C1CCCN1C(=O)c1cccc(-n2cnnn2)c1 (configuration not stated) read 1.576%.

With Cc1cn2nc(N3CCN(Cc4nc(C(C)C)no4)CC3)sc2n1 the screen gave -8.748%. Result for COc1cc(CNCc2c(C)nn(CC(C)C)c2N(C)C)ccn1 was 8.862%. Result for CCc1nc(C2CCCN2C(=O)c2cc[nH]n2)no1 (configuration not stated) was -1.249%. With COc1ccc(C2Nc3ccccc3NC3=C2C(=O)NC3)cc1OC (configuration not stated) the screen gave -2.923%. For CCCOCC1CCN(C(=O)c2cnc(-c3cccnc3)nc2O)C1 (configuration not stated) the result was -7.538%. With COc1ccccc1CC(=O)N(CCN1CCOCC1)Cc1ccco1 the screen gave -2.018%.

Cn1c(C2CC2)nc2c1CCN(CCOc1ccc(C#N)cc1)C2 read -18.32%. Result for CN(Cc1ccccn1)C1COC2(CCN(Cc3cccnc3)CC2)C1 (configuration not stated) was 7.036%. Result for O=C(C1CCOCC1)N1CCc2ncc(CN3CCCCC3)n2CC1 was -3.866%. Result for [H][C@]12CC[C@]([H])(CN(Cc3ccccc3)C1)N(C(=O)CNC(N)=O)C2 was 0.1181%. For CCc1nc(C(=O)N2CCOCC2)nn1-c1ccccc1Cl the result was -1.526%. CN1CCc2onc(CNc3ncccn3)c2C1.O=C(O)C(F)(F)F.O=C(O)C(F)(F)F gave 4.221%.

For O=C(O)C(F)(F)F.[H][C@@]12OCCN(C(=O)C3CCC3)[C@@]1([H])CC[C@H]2OCCCn1cccn1 the result was 0.6745%. With CCC(NC(=O)c1c(C(=O)O)cnn1C)c1ccc(C)cc1C (configuration not stated) the screen gave 5.646%. CCc1noc(CN2CCN(C(=O)c3ccccn3)CC2)n1 gave -8.696%. Result for Cc1nn(C)c(C)c1OCC(=O)NCc1cccc(C(=O)O)c1 was -11.06%. Cc1cc(C)n(NC(=O)c2ccccc2C)c(=O)c1 read 8.517%. CN1CCN(Cc2cnc3n2CCN(C(=O)c2cscn2)C3)CC1 gave 4.377%.

O=C(c1cccnc1)N1CCC(c2nc(O)cc(-c3ccncc3)n2)C1 (configuration not stated) read 5.234%. Cc1noc(C2CCN(C(=O)c3ccc(NC4CC4)nc3)CC2)n1 read 9.34%.

The last 6 entries again:

structure	Percent Effect
CCc1noc(CN2CCN(C(=O)c3ccccn3)CC2)n1	-8.696
Cc1nn(C)c(C)c1OCC(=O)NCc1cccc(C(=O)O)c1	-11.06
Cc1cc(C)n(NC(=O)c2ccccc2C)c(=O)c1	8.517
CN1CCN(Cc2cnc3n2CCN(C(=O)c2cscn2)C3)CC1	4.377
O=C(c1cccnc1)N1CCC(c2nc(O)cc(-c3ccncc3)n2)C1 (configuration not stated)	5.234
Cc1noc(C2CCN(C(=O)c3ccc(NC4CC4)nc3)CC2)n1	9.34